In all, about 33,000 sequences were measured (“E-score (-0.5 to 0.5)”: median about -8e-05, highest 2% from about 0.23 on). The list shows a part of the results.
biological target: T1, Nrg2 (UniProt P38082); experiment: PBM E-score (8-mer binding enrichment) (E-score (-0.5 to 0.5)); higher = stronger / more preferred TF binding; settings: protein concentration: 100 nM; construct: GST-full length
T1 sequence: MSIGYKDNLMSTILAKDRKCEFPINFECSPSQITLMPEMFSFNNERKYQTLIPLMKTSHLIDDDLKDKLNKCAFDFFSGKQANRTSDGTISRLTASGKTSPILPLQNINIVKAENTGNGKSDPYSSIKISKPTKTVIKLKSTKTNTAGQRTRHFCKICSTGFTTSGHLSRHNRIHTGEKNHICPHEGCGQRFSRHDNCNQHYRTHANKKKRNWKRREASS
How it was run: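 Full-length yeast transcription factors or their DNA-binding domains, GST-tagged and expressed with PURExpress, were applied at about 100-200 nM to universal all-10-mer Agilent arrays. These arrays had been made double-stranded by primer extension on fresh or once-stripped slides. Detection used fluorescent anti-GST, normalisation used masliner, and E-scores for ungapped eight-base words pooled with reverse complements came from the Universal PBM Analysis Suite.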

Sequence	PBM E-score
CTGCACTC	0.0249
AGACCCCG	0.132
CTTGCACA	0.0595
AATGAGGG	-0.00097
GACAAAGC	0.00517
CCCACGTC	-0.0663
CGCGGCAG	0.109
ACCTATCT	0.0514
AGCCCGAC	-0.0916
ACTGTTTC	-0.093
GATCGAGC	0.12
GACCCCTA	0.151
ACCTGGAT	-0.0853
TATCGATA	0.106
AGCCTAAG	-0.243
ACGCGTAT	0.2
GGAGTAGA	0.00615
ATCGACAG	0.053
GTTGTCTA	-0.0246
CACACAGA	0.154
AACCTATA	-0.0271
AGCTGGTC	-0.0762
CGTCTAAG	0.0215
CCAAGACG	-0.119
ACTGTCCA	-0.0837

Sequence	PBM E-score
CTTGTCGA	-0.0417
ATGAGGTC	-0.142
AGTGGTCA	-0.145
CAAACGAA	-0.0374
AACAAACT	0.122
CCACCCGG	-0.0786
ACTCAAAG	-0.0492
CCTCGACC	-0.128
CTCAGCGA	0.0665
AGCAAGCC	-0.0587
AAGCGTGA	0.113
CCGGATGA	0.0124
CTACCGAG	-0.171
ACATGCAG	0.0502
CTTTAATA	0.125
CGTCGAAC	-0.0858
AGACAAAC	-0.0664
CTAGTGGC	-0.0913
AACAGGTA	0.0321
AATAGGCC	-0.146
AGCCGGTG	0.0695
CTCGCAGA	-0.0929
ATCCTACC	-0.0603
ACGTCCAT	-0.00778
GAGGGTAC	0.0887

Sequence	PBM E-score
AGGTGATC	0.00773
GGAATTGA	0.189
ACTAATGA	0.149
CACTCGTA	-0.0342
GGGTTACA	-0.143
ACGTATTA	0.202
ATTGAAAC	0.123
TCCGCTCA	-0.0356
GCACCTTA	0.0493
CAGGATTC	-0.0379
ACAGTCTC	-0.198
CGCGAAGC	0.128
CGATCACG	0.0919
CGGCCACG	-0.257
AGCGCAGG	-0.0457
ACTTAGAG	-0.165
CAGCAGGC	-0.0392
CGGACTAC	-0.0158
GTAGTCGA	-0.00498
AGTACATG	-0.0555
GGGTGTAC	-0.0162
ACCTGACA	0.167
ACTATGTG	0.108
ATTACTGG	-0.0209
CCCAGTCA	-0.249

Sequence	PBM E-score
CCGGATCC	0.0775
AAGGGAGC	-0.187
ACCTGAAA	0.00478
CAGCGGTC	-0.102
ACTTCCGG	-0.165
GATAAAGC	-0.00016
AAGCATGT	0.0409
AAATGTCG	0.0668
AGCCAAAT	0.0146
CCGTCTGC	0.0171
ATGCGGTA	-0.0628
ACAACGAG	0.0513
TATTACAA	0.022
CTAGGGGA	0.0651
CAGTCACA	-0.0678
AATCTCAT	0.0761
CTGGTGTC	-0.0326
ATTTTTAG	-0.129
ACTCACGA	-0.0919
AAGGAGCA	-0.0808
CACAATCC	-0.00291
CTCGACAG	-0.117
AACGAACT	-0.127
CCAAACTA	0.099
GAGCTGCC	-0.131

Sequence	PBM E-score
CGGAAAGA	0.0171
TCGTCGCA	0.115
CCATAACC	0.0412
GACACTGC	-0.0906
ATCGGTTG	-0.0621
ATGAGGCG	-0.0537
CTGGGGGC	-0.288
ACGATAGT	0.0866
GGAGTTCA	-0.0445
AGCAATGA	0.0849
TGATCACA	0.00291
AGCAACGG	0.218
CGAATTCA	0.134
CTGGATCA	-0.0464
AAATGGCG	0.0803
CCTACGTA	-0.129
CGGCAATA	0.174
TAGAACTA	-0.0342
AGCCAGGC	-0.0435
AAATTCCG	0.163
TGCCGGAA	0.0295
GATCCACA	-0.0447
GCTGTTTA	0.0662
TCACACCA	0.0485
ACACTATC	0.129

Rewritten with bars between the fields: entries from further up
Sequence | PBM E-score
ACCTATCT | 0.0514
AGCCCGAC | -0.0916
ACTGTTTC | -0.093
GATCGAGC | 0.12
GACCCCTA | 0.151
ACCTGGAT | -0.0853
TATCGATA | 0.106
AGCCTAAG | -0.243
ACGCGTAT | 0.2
GGAGTAGA | 0.00615
ATCGACAG | 0.053
GTTGTCTA | -0.0246
CACACAGA | 0.154
AACCTATA | -0.0271
AGCTGGTC | -0.0762
CGTCTAAG | 0.0215
CCAAGACG | -0.119
ACTGTCCA | -0.0837
CTTGTCGA | -0.0417
ATGAGGTC | -0.142
AGTGGTCA | -0.145
CAAACGAA | -0.0374
AACAAACT | 0.122
CCACCCGG | -0.0786
ACTCAAAG | -0.0492
CCTCGACC | -0.128
CTCAGCGA | 0.0665
AGCAAGCC | -0.0587
AAGCGTGA | 0.113
CCGGATGA | 0.0124
CTACCGAG | -0.171

More records

Sequence	PBM E-score
GACGACTA	-0.0919
AGCCGGTC	-0.292
CCTCTCCA	-0.343
CAGAATGC	0.0105
GCCCACGC	-0.13
ACGGGTGA	0.104
CGTCTTCA	0.0161
AAATGTAC	0.202
ACGAGTCA	-0.246
CATAATTC	-0.00086
AGTGATCC	0.047
TAAACTAA	0.186
CGAAGAAA	0.111
CCGGGAGA	-0.0964
GTCTTAAC	0.0196
CAATTTAC	0.12
CCCCAGTA	-0.00702
CCGAAACG	-0.0772
CCAAGAGC	-0.00579
ATAGGCTC	-0.111
CGTAGTGC	-0.0608
CGAGAACA	0.0814
GATATGCC	0.132
CAGATAGA	-0.0814
CCGAGCAA	-0.0344

Sequence	PBM E-score
CCGCACCA	0.063
CCGTGGTC	-0.246
GGAAGCCA	-0.222
AGTATAGA	0.17
CCTTCTAC	-0.00916
AAGACAAT	0.054
AATGTACG	0.0534
ACAGTTCC	0.0621
CGCGGCCG	-0.0624
GTGCTTCA	0.161
CTTCTTGC	0.111
ACGCCCCA	0.179
ACACTGGC	-0.0834
CGCCAGCC	0.00719
GGGAAGCA	-0.078
CGGCGGAC	0.0566
TACAGAGA	-0.0618
CGTTCCAG	-0.0838
ACTTGGGG	0.105
GCAACTGC	0.111
CCAGAGAA	0.00999
AATGCCCA	-0.0232

— the supplement of paper PMC3334620
